No constants are given. Whether binding was seen depends on the method and setting. In cells and extracts the contact can be indirect. Some results given as binding are weak or reduced against the parent protein; the word gives no strength.

Sequences of proteins named here, by UniProt entry; tags and fusion partners are left off.
UniProt O94972: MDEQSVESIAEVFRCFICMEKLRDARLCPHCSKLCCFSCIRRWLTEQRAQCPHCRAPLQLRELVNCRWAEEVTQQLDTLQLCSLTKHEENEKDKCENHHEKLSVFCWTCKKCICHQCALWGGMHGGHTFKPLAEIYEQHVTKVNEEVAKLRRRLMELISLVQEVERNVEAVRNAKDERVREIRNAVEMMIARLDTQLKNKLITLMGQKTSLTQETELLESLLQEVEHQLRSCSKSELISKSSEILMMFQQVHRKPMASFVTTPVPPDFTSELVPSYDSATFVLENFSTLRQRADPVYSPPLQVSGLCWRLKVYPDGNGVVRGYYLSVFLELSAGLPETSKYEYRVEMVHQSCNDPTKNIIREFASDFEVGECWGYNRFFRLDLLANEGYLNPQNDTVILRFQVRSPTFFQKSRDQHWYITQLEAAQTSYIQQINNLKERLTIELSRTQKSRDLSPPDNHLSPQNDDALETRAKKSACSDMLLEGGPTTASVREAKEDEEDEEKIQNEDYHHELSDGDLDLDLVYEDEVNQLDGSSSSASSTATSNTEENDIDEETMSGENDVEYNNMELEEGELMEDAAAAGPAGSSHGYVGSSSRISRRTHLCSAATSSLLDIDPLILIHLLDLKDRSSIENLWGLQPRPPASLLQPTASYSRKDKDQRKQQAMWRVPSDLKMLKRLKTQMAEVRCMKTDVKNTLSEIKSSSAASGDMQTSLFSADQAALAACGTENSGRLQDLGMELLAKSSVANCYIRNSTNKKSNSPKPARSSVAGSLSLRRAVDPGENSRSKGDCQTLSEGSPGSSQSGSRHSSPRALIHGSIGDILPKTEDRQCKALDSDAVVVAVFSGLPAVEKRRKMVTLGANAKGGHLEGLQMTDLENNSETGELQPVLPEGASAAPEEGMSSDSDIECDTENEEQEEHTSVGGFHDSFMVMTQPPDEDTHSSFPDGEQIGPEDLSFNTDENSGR

Experiment [1] concerns the target T1, polo-like kinase 4 (PLK4) (human (endogenous in HEC-1A and Ishikawa)) (UniProt O00444).
T1 sequence: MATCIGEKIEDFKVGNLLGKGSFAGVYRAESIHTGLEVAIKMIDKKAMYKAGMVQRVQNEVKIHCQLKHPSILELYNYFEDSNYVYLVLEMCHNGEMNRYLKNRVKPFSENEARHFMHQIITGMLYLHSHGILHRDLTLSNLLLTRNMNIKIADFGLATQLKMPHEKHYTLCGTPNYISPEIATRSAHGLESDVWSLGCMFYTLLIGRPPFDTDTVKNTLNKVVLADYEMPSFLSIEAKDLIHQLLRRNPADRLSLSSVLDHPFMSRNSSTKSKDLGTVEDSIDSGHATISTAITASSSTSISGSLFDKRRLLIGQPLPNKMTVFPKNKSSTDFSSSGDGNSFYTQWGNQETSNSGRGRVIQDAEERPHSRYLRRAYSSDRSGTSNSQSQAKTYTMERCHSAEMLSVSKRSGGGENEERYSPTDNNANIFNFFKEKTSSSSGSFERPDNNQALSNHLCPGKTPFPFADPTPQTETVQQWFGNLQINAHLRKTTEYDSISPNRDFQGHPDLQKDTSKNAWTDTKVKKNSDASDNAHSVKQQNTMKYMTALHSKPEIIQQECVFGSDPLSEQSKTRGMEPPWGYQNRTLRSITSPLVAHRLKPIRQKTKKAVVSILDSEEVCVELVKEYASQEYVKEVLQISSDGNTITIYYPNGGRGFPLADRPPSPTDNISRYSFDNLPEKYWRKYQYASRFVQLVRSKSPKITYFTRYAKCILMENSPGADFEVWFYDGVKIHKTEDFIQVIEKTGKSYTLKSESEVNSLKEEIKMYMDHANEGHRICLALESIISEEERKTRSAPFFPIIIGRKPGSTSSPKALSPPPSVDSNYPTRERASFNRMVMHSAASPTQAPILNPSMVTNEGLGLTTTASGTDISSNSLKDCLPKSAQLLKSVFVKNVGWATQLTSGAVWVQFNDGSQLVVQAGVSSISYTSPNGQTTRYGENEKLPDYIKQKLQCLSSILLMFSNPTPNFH
The experiment can be described thus: co-IP; HEC-1A and Ishikawa cells lysed in IP lysis buffer with protease inhibitors; immunoprecipitation with anti-PLK4, anti-KIFC1 or normal IgG antibody and protein G-Agarose beads overnight at 4 °C; western blot for KIFC1, TRIM37, PLK4 and GAPDH.

In experiment [2] the target is T2, Kinesin family member C1 (KIFC1) (human (endogenous in HEC-1A and Ishikawa)) (UniProt Q9BW19).
T2 sequence: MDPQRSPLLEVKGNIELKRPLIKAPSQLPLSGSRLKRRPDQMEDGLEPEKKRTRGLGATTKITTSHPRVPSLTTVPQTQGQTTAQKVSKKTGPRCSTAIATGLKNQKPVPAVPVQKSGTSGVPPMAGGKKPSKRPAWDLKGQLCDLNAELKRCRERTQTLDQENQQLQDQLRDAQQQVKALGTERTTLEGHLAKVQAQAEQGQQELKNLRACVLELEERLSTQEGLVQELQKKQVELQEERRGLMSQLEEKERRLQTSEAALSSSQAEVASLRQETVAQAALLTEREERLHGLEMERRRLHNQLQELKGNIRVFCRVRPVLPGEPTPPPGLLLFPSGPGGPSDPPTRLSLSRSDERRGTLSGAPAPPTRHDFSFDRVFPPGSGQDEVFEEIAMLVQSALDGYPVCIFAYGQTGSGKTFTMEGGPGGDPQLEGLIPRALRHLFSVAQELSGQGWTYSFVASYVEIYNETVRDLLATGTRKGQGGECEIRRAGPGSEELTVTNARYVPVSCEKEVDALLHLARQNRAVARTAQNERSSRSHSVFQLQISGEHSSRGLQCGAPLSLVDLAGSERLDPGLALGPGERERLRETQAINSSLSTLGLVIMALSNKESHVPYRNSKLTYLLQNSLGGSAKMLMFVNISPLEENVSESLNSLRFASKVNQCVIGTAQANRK
The experiment is described as above.

With “E3 ubiquitin-protein ligase TRIM37 (from UniProt O94972 1-964)”, the binding entry in experiment [1] and in experiment [2] was “binds” throughout.

B1: Kinesin family member C1 (KIFC1) (protein, UniProt Q9BW19 1-673)
chain: MDPQRSPLLEVKGNIELKRPLIKAPSQLPLSGSRLKRRPDQMEDGLEPEKKRTRGLGATTKITTSHPRVPSLTTVPQTQGQTTAQKVSKKTGPRCSTAIATGLKNQKPVPAVPVQKSGTSGVPPMAGGKKPSKRPAWDLKGQLCDLNAELKRCRERTQTLDQENQQLQDQLRDAQQQVKALGTERTTLEGHLAKVQAQAEQGQQELKNLRACVLELEERLSTQEGLVQELQKKQVELQEERRGLMSQLEEKERRLQTSEAALSSSQAEVASLRQETVAQAALLTEREERLHGLEMERRRLHNQLQELKGNIRVFCRVRPVLPGEPTPPPGLLLFPSGPGGPSDPPTRLSLSRSDERRGTLSGAPAPPTRHDFSFDRVFPPGSGQDEVFEEIAMLVQSALDGYPVCIFAYGQTGSGKTFTMEGGPGGDPQLEGLIPRALRHLFSVAQELSGQGWTYSFVASYVEIYNETVRDLLATGTRKGQGGECEIRRAGPGSEELTVTNARYVPVSCEKEVDALLHLARQNRAVARTAQNERSSRSHSVFQLQISGEHSSRGLQCGAPLSLVDLAGSERLDPGLALGPGERERLRETQAINSSLSTLGLVIMALSNKESHVPYRNSKLTYLLQNSLGGSAKMLMFVNISPLEENVSESLNSLRFASKVNQCVIGTAQANRK
For the molecule B1, the binding result in experiment [1] is “no binding”.

The record behind these values is publication PMC11442630.
